“Also recorded” adds a separate entry of the source. Part of at least one peptide drawing is inferred or uncertain, most often the ends. Some compounds share one wording; it may come from a single statement. Where a SMILES comes first, the peptide text is derived from it. Bridges are numbered along the chain shown (N, C = ends). [ ]: non-standard residue; d: D form. Tic = O=C(O)[C@@H]1Cc2ccccc2CN1; Pen = CC(C)(S)[C@H](N)C(=O)O; Phg = N[C@H](C(=O)O)c1ccccc1; Tle = CC(C)(C)[C@H](N)C(=O)O; 3Amb = NCc1cccc(C(=O)O)c1; Mpa = O=C(O)CCS
Columns and labels:
α5 β1 (FnR) = target: T1, α5 β1 (FnR) (Homo sapiens, UniProt P05556+P08648); assay: α5β1 competitive ELISA; assay type: binding; details: in words
T1 construct: Fibronectin receptor (FnR) was purified from 100 mM octyl-glucopyranoside-extracted human placenta; from tissue; host or cells: human placenta

chick osteoclasts = assay: Chick cell detachment assay (osteoclasts versus total cells); assay type: cell-based; details: FIG. 5, chick total cell detachment curve; in words
αv β3 receptor = target: T2, αv β3 receptor (Homo sapiens, UniProt P05106+P06756); assay: αvβ3 competitive ELISA; assay type: binding; details: IC50 in αvβ3 ELISA / JY cells versus αvβ5 and α5β1 ELISAs; in words
T2 construct: The αv β3 receptor was purified from octylglucopyranoside-extracted human placenta; from tissue; host or cells: human placenta
Protocol: Peptide binding to purified human αv β5 and αv β3, which are VnR's, and to α5 β1 which is a FnR, was determined using competitive ELISA assays as described below.
Peptide binding to purified αv β3 receptor was determined by using a competitive ELISA, in which αv β3 receptor was immobilized and the binding of solubilized VN, in the presence of various concentrations of peptide analogue, was detected using a monoclonal mouse IgG anti-VN antibody and a labelled anti-mouse IgG conjugate.
96 well microtiter plates were coated overnight at RT with 100 μl/well of αv β3 receptor (0.5 μg/ml in 1X TBS, 4 mM octylglucoside, 1 mM CaCl2). The wells were blocked with 200 μl/well of 1% BSA in 1X TBS, 1 mM CaCl2 for at least 30 min. The plates were washed 2× with 1X TBS, 1 mM CaCl2. 50 μl peptide in 1X TBS, 1 mM CaCl2, 0.05% TWEEN 20 (polyoxyethylenesorbitan monolaurate) was added in 10-fold serial dilutions. 50 μl of Vn in the same buffer then was added to each well.
The plates were incubated for 3 hr at RT, then washed 3× with 1X TBS, 0.05% TWEEN 20 (polyoxyethylenesorbitan monolaurate). 100 μl of 8E6 (Telios) diluted to 1:6000 in 1X TBS, 0.05% TWEEN 20 (polyoxyethylenesorbitan monolaurate) was added to the wells and the plates were incubated for 1 hr at RT. Plates were washed 3× with 1X TBS, 0.05% TWEEN 20 (polyoxyethylenesorbitan monolaurate). Affinity purified goat anti-mouse IgG conjugated to horseradish peroxidase (100μl/well; BioRad; Hercules Calif.) was added to each well and incubated for 1 hr at RT. Plates were washed 3× with 1X TBS, 0.05% TWEEN 20 (polyoxyethylenesorbitan monolaurate). 100 μl/well of substrate mixture (10 mg O-phenylenediamine in 25 ml 0.1M citrate-phosphate buffer, pH 5.0, 6 μl 30% H2 O2) was added to the plates and allowed to develop. The development process was stopped by adding 50 μl to 4N H2 SO4 to each well. The plates were read at 490 nm and the data analyzed by four parameter fit.

[1] = Parathyroid hormone-induced hypercalcemia in mice; assay type: in vivo; details: parathyroidectomized Swiss-Webster mice, 4 hr peptide infusion, 0.2 mg PTH/kg i.v.; in words
Text: Parathyroid hormone (PTH) activates osteoclasts, which are involved in bone resorption. Associated with the increased osteoclast activity is an increase in serum calcium. The PTH-induced hypercalcemia assay measures the level of serum calcium, which is an indication of bone resorption in a subject (Fischer et al., Endocrinology 132:1411-1413 (1993), which is incorporated herein by reference).
Swiss-Webster mice, which had been parathyroidectomized two weeks prior to beginning the assay, were obtained from Taconic Lab Animals and Services (Germantown N.Y.). Femoral vein catheters (PE-50 fused with PE10 polyethylene tubing; Becton Dickinson; Parsippany, N.J.) were installed in the mice, flushed and locked with heparinized saline (1:10), sutured to adjacent muscle and internalized within the inguinal space of the incision before closing the incision with wound clips. […]
The experiment was initiated by feeding the mice a calcium-deficient diet overnight, then injecting the mice the following morning with a bolus of 0.2 mg PTH/kg (hPTH 1-34; Bachem; Torrance Calif.), intravenously. […] Various doses of a peptide or vehicle were infused into an animal for 4 hr, then ionized serum calcium again was measured. […] Serum calcium measurements were expressed as the difference between the value 30 min before the PTH pulse and 4 hr after peptide infusion was started. […]

[2] = system: osteoclasts; αv β3 integrin receptor; assay: Series of assays of Example II (summary of potency and selectivity, FIG. 2); details: in words
rat osteoclasts = assay: Rat osteoclast attachment assay compared with MG63 / NRK cell attachment; assay type: cell-based; details: FCS-coated plates; in words

SMILES: N=C(N)NCCC[C@@H]1NC(=O)CC[C@@H](C(N)=O)NC(=O)[C@@H]2CCCN2C(=O)[C@H](CO)NC(=O)[C@H](CC(=O)O)NC(=O)CNC1=O [compound 825] (RGDSPE-NH2; lactam N-6)
- selectivity toward α5 β1 compared to αv β5 (α5 β1 (FnR)): more selective toward α5 β1

SMILES: CC(C)[C@@H]1NC(=O)[C@H](CC(=O)O)NC(=O)[C@H](CC(=O)O)NC(=O)CNC(=O)[C@H](CCCNC(=N)N)NC(=O)CC[C@@H](C(N)=O)NC1=O [peptide 386, RGDDVE-NH2] (RGDDVE-NH2; lactam N-6)
- selective detachment of osteoclasts as compared to other cell types (chick osteoclasts): caused selective detachment of osteoclasts as compared to other cell types
- receptor selectivity for αv β3 compared to αv β5 and α5 β1 (αv β3 receptor): particularly receptor selective
- PTH-induced rise in serum ionized calcium [1]: relatively low level of serum calcium
- activity (FIG. 2) ([2]; minimally essential elements): demonstrate activity
- selectivity: osteoclast attachment versus MG63 or NRK attachment (rat osteoclasts): considered selective

SMILES: N=C(N)NCCC[C@@H]1NC(=O)CCSSC[C@@H](C(N)=O)NC(=O)[C@H](c2ccccc2)NC(=O)[C@H](CC(=O)O)NC(=O)[C@H](CC(=O)O)NC(=O)CNC1=O [compound 750] ([Mpa]RGDD[Phg]C-NH2; disulfide 1-7)
- receptor selectivity for αv β3 compared to αv β5 and α5 β1 (αv β3 receptor): receptor selective for αv β3; also recorded: higher affinity for αv β3; also recorded: particularly receptor selective
- both potent and selective [2]: having both characteristics; also recorded: both potent and selective
- selectivity: osteoclast attachment versus MG63 or NRK attachment (rat osteoclasts): considered selective

SMILES: C[C@H](NC(=O)[C@@H]1CSSC(C)(C)[C@H](NC(=O)CN)C(=O)N[C@@H](CCCNC(=N)N)C(=O)N[C@@H](C)C(=O)N[C@@H](CCCNC(=N)N)C(=O)NCC(=O)N[C@@H](CC(=O)O)C(=O)N[C@@H](CC(N)=O)C(=O)N2CCC[C@H]2C(=O)N1)C(=O)O [compound 100] (H-G[Pen]RARGDNPCA-OH; disulfide 2-10)
- selectivity toward α5 β1 compared to αv β5 (α5 β1 (FnR)): more selective toward α5 β1

SMILES: CC(=O)N[C@@H]1C(=O)N[C@@H](Cc2ccccc2)C(=O)N[C@@H](C)C(=O)N[C@@H](CCCNC(=N)N)C(=O)NCC(=O)N[C@@H](CC(=O)O)C(=O)N[C@@H](CC(=O)O)C(=O)N[C@@H](c2ccccc2)C(=O)N[C@H](C(N)=O)CSSC1(C)C [compound 84] (Ac-[Pen]FARGDD[Phg]C-NH2; disulfide 1-9)
- receptor selectivity for αv β3 compared to αv β5 and α5 β1 (αv β3 receptor): receptor selective for αv β3

SMILES: C[C@H](NC(=O)[C@@H]1CSSC(C)(C)[C@H](NC(=O)CN)C(=O)N[C@@H](C)C(=O)N[C@@H](C)C(=O)N[C@@H](CCCNC(=N)N)C(=O)NCC(=O)N[C@@H](CC(=O)O)C(=O)N[C@@H](CC(N)=O)C(=O)N2CCC[C@H]2C(=O)N1)C(=O)O [compound 310] (H-G[Pen]AARGDNPCA-OH; disulfide 2-10)
- selectivity toward α5 β1 compared to αv β5 (α5 β1 (FnR)): more selective toward α5 β1

SMILES: C[C@@H]1NC(=O)[C@H](C)NC(=O)[C@@H](NC(=O)CN)C(C)(C)SSC[C@@H](C(N)=O)NC(=O)[C@H]([C@@H](C)O)NC(=O)[C@H](CC(=O)O)NC(=O)[C@H](CC(=O)O)NC(=O)CNC(=O)[C@H](CCCNC(=N)N)NC1=O [compound 186] (H-G[Pen]AARGDDTC-NH2; disulfide 2-10)
- receptor selectivity for αv β3 compared to αv β5 and α5 β1 (αv β3 receptor): particularly receptor selective

SMILES: CC(C)[C@@H]1NC(=O)[C@H](CC(=O)O)NC(=O)[C@H](CC(=O)O)NC(=O)CNC(=O)[C@H](CCCNC(=N)N)NC(=O)CNC(=O)C[C@@H](C(N)=O)NC1=O [peptide 368] (GRGDDVD-NH2; lactam N-7)
- receptor selectivity for αv β3 compared to αv β5 and α5 β1 (αv β3 receptor): receptor selective for αv β3; also recorded: selective peptide; also recorded: particularly receptor selective
- both potent and selective [2]: both potent and selective

SMILES: C[C@@H]1NC(=O)[C@H](CCCNC(=N)N)NC(=O)CNC(=O)CC[C@@H](C(N)=O)NC(=O)[C@@H]2CCCN2C(=O)[C@H](CC(N)=O)NC(=O)[C@H](CC(=O)O)NC(=O)CNC(=O)[C@H](CCCNC(=N)N)NC1=O [compound 390] (GRARGDNPE-NH2; lactam N-9)
- selectivity toward α5 β1 compared to αv β5 (α5 β1 (FnR)): more selective toward α5 β1

SMILES: CC(C)[C@@H]1NC(=O)[C@H](CC(=O)O)NC(=O)[C@H](CC(=O)O)NC(=O)CNC(=O)[C@H](CCCNC(=N)N)NC(=O)[C@H](C)NC(=O)[C@H](CCCNC(=N)N)NC(=O)[C@@H](NC(=O)CN)C(C)(C)SSC[C@@H](C(=O)N[C@@H](C)C(=O)O)NC1=O [compound 138] (H-G[Pen]RARGDDVCA-OH; disulfide 2-10)
- receptor selectivity for αv β3 compared to αv β5 and α5 β1 (αv β3 receptor): particularly receptor selective

SMILES: CC(=O)N[C@H]1CSSC[C@@H](C(N)=O)NC(=O)[C@@H]2Cc3ccccc3CN2C(=O)[C@H]([C@@H](C)O)NC(=O)[C@H](CC(=O)O)NC(=O)CNC(=O)[C@H](CCCNC(=N)N)NC(=O)[C@H](C)NC(=O)[C@H](C)NC1=O [compound 206] (Ac-CAARGDT[Tic]C-NH2; disulfide 1-9)
- potency (active at a relatively low concentration) [2]: particularly potent

SMILES: CC(=O)N[C@H]1CSSC[C@@H](C(N)=O)NC(=O)[C@@H]2Cc3ccccc3CN2C(=O)[C@H]([C@@H](C)O)NC(=O)[C@H](CC(=O)O)NC(=O)CNC(=O)[C@H](CCCNC(=N)N)NC1=O [compound 437] (Ac-CRGDT[Tic]C-NH2; disulfide 1-7)
- potency (active at a relatively low concentration) [2]: particularly potent

SMILES: CC(C)(C)[C@@H]1NC(=O)[C@H](CC(=O)O)NC(=O)[C@H](CC(=O)O)NC(=O)CNC(=O)[C@H](CCCNC(=N)N)NC(=O)CNC(=O)CC[C@@H](C(N)=O)NC1=O [compound 487] (GRGDD[Tle]E-NH2; lactam N-7)
- receptor selectivity for αv β3 compared to αv β5 and α5 β1 (αv β3 receptor): receptor selective for αv β3; also recorded: higher affinity for αv β3; also recorded: particularly receptor selective
- both potent and selective [2]: having both characteristics; also recorded: both potent and selective
- selectivity: osteoclast attachment versus MG63 or NRK attachment (rat osteoclasts): considered selective

SMILES: CC(=O)N[C@H]1CSSC[C@@H](C(N)=O)NC(=O)[C@@H]2Cc3ccccc3CN2C(=O)[C@H](CC(N)=O)NC(=O)[C@H](CC(=O)O)NC(=O)CNC(=O)[C@H](CCCNC(=N)N)NC(=O)[C@H](C)NC(=O)[C@H](C)NC1=O [compound 20] (Ac-CAARGDN[Tic]C-NH2; disulfide 1-9)
- selective detachment of osteoclasts as compared to other cell types (chick osteoclasts): caused selective detachment of osteoclasts as compared to other cell types
- PTH-induced rise in serum ionized calcium [1]: decreased the PTH-induced rise in serum ionized calcium in a dose responsive manner
- potency (active at a relatively low concentration) [2]: particularly potent

SMILES: CC(C)(C)[C@@H]1NC(=O)[C@H](CC(=O)O)NC(=O)[C@H](CC(=O)O)NC(=O)CNC(=O)[C@H](CCCNC(=N)N)NC(=O)c2cccc(c2)CNC1=O [compound 751] (cyclo(RGDD[Tle][3Amb]))
- potency (active at a relatively low concentration) [2]: particularly potent

SMILES: CC(=O)N[C@H]1CSSC[C@@H](C(N)=O)NC(=O)[C@@H]2Cc3ccccc3CN2C(=O)[C@H](CC(N)=O)NC(=O)[C@H](CC(=O)O)NC(=O)CNC(=O)[C@H](CCCNC(=N)N)NC(=O)[C@@H]2CCCN2C(=O)[C@H](CCC(=O)O)NC1=O [compound 108] (Ac-CEPRGDN[Tic]C-NH2; disulfide 1-9)
- potency (active at a relatively low concentration) [2]: particularly potent

Source: US5773412A, “Use of peptides for altering αV β3 -mediated binding” (priority 1995, dated 1998)
